Hit rate of the full screen: of about 580,000 compounds, about 6,100 (1.1%) were called active. This list was built around the results that the source calls inconclusive (neither active nor inactive); the mix of calls is not that of the screen. The call rests on the fitted dose curve; in most records, active means well fitted inhibition curve with a large enough effect; inconclusive means small, poorly fitted or top-dose-only effect, or another doubt; inactive means no such curve, though single readings can be large or run the other way. Potencies beside an inconclusive call are fits to weak or partial responses and may not hold up.
target: Polyunsaturated fatty acid lipoxygenase ALOX12 (Homo sapiens) (UniProt P18054); experiment: Primary qHTS assay for inhibitors of human arachidonate 12S-lipoxygenase (ALOX12): Round 2; conditions: purified 12hLO, xylenol orange hydroperoxide absorbance; activity change, negative = inhibition: at 108 µM (top of the series) unless noted
Summary of the method: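 Purified human 12hLO at 150 nM in 25 mM Hepes, 0.01% Triton X-100, pH 7.0, preincubated 15 min at room temperature with compound. Reaction started with 40 uM arachidonic acid, 30 min at room temperature. Hydroperoxide measured by Fe-xylenol orange, 573/405 nm absorbance ratio.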
On the % scale 0 is the no-effect control and ±100 the full control effect; potency means the concentration at half of the fitted maximal effect.

Chains of the proteins cited; added tags and fusions are not shown.
UniProt P18054, whole entry, looked up: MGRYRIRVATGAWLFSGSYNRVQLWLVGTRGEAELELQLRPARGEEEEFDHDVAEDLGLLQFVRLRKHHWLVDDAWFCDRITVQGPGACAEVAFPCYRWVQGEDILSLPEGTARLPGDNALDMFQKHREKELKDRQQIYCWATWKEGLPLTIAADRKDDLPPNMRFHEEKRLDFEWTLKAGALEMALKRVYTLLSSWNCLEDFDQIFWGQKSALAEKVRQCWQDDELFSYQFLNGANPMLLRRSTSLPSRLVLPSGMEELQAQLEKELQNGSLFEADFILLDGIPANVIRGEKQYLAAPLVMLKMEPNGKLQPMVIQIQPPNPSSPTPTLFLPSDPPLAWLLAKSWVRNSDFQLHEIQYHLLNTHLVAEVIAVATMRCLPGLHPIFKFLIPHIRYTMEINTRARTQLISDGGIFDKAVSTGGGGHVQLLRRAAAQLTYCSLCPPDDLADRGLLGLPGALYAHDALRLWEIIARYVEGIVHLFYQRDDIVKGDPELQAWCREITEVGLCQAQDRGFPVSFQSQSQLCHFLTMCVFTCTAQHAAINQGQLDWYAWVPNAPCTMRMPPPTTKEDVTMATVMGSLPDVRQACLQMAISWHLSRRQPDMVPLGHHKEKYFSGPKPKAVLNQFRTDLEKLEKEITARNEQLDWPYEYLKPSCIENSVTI

Row | Structure (SMILES) | Potency | activity change, negative = inhibition
1 | C[N+]1(C)CCC(=C2c3ccccc3CC(=O)c3sccc32)CC1 | inconclusive: 50.1 µM [inhibitor, partial curve, poor fit] | 
2 | O=C(CSc1ncc(-c2ccc(F)cc2)o1)Nc1ccc(F)c(F)c1 |  | inactive: -54.9%
3 | Cc1cccc(C)c1NC(=S)N(CCN1CCCCCC1)Cc1ccco1 |  | inactive: 2.19%
4 | COc1ccc(N(C)S(=O)(=O)c2cccc(C(=O)Nc3nnc(C)s3)c2)cc1 | inconclusive: 22.4 µM [inhibitor, single point] | 
5 | COc1ccc(OCc2nc(C3CN(C(=O)C4(c5ccc(OC)cc5)CC4)C3)no2)cc1 |  | inactive: 5.38%
6 | COc1ccc(-c2c(-c3ccc(OCC(=O)NN)cc3O)n[nH]c2C(F)(F)F)cc1 | inconclusive: 79.4 µM [inhibitor, partial curve, poor fit] | 
7 | Cc1cccc(NC(=S)N2CCN(c3ccccn3)CC2)c1 | inconclusive: 112 µM [inhibitor, single point] | 
8 | CN1CCN(C(=O)CC2CCCN(c3cnn(CC4CC4)c(=O)c3)C2)CC1 (stereo not given) | inconclusive: 79.4 µM [inhibitor, partial curve] | 
9 | Cc1nc2c(=O)n(C)c(=O)[nH]c2n1Cc1ccccc1 | inconclusive: 126 µM [inhibitor, partial curve, poor fit] | 
10 | CC(=O)N1CCCC(c2nn(-c3cccc(Cl)c3)c(=O)[nH]2)C1 (stereo not given) | inconclusive: 22.4 µM [inhibitor, full curve, poor fit] | 
11 | O=C(O)c1cccc(NCc2ccc(F)cc2)c1 |  | inactive: -25.8%
12 | CC1=CC(C)(C)[N+](C)=CN1c1ccccc1 | inconclusive: 44.7 µM [inhibitor, partial curve, poor fit] | 
13 | CC(=O)c1ccc(NC(=O)C2=Cc3sc4c(c3CS2)CCCC4)cc1 | inconclusive: 14.1 µM [inhibitor, full curve] | 
14 | CCn1c(SCC(=O)c2c(N)n(C3CC3)c(=O)[nH]c2=O)nnc1-c1ccccc1OC | inconclusive: 50.1 µM [inhibitor, partial curve, poor fit] | 
15 | CCOc1ccc(N(CC(=O)NCc2cccc(OC)c2)S(=O)(=O)c2c(C)noc2C)cc1 |  | inactive: -0.98%
16 | CN(C)C(=O)[C@@H]1C[C@@H](Sc2nc3ccccc3[nH]2)CN1Cc1ccnc2ccccc12 | inconclusive: 112 µM [inhibitor, single point] | 
17 | COc1cc(NC(=O)c2nc3ccccc3n(C)c2=O)cc(OC)c1OC | inconclusive: 63.1 µM [inhibitor, partial curve, poor fit] | 
18 | O=C1c2cc(N3CCOCC3)nc(-c3ccccc3F)c2CN1CC1CC1 |  | inactive: -21.9% [at 176 µM]
19 | Cc1cc(-c2n[nH]c(=S)n2CC(C)C)cs1 | inconclusive: 50.1 µM [inhibitor, partial curve, poor fit] | 
20 | CNC(=O)[C@@H](Cc1ccccc1)N1CCC[C@H]1C(=O)NCC1CC1 | inconclusive: 8.91 µM [inhibitor, full curve, poor fit] | 
21 | Cc1cccnc1NC(=S)NC(=O)/C=C/c1ccccc1 | inconclusive: 4.47 µM [inhibitor, full curve] | 
22 | Cc1c(C(c2cccc(Br)c2)c2c(C)n(C)n(-c3ccccc3)c2=O)c(=O)n(-c2ccccc2)n1C | inconclusive: 10 µM [inhibitor, full curve] | 
23 | Clc1ccc(CSCCSc2nc3ccccc3s2)cc1 |  | inactive: -32.1%
24 | CC[C@]1(C(=O)OC)[C@H]2C(=O)N(C)C(=O)[C@H]2[C@H]2CN(C)C(=NCc3ccccc3)N21 | inconclusive: 126 µM [inhibitor, single point] | 

Row | Structure (SMILES) | Potency | activity change, negative = inhibition
25 | C/C(=N/NC(=O)c1ccncc1)c1cc2ccc(O)cc2oc1=O |  | inactive: -1.31%
26 | Cc1c(CN2CC(=O)N(CC(C)C)CC(OCc3ccccc3F)C2)c(=O)n(-c2ccccc2)n1C (stereo not given) |  | inactive: 17.3%
27 | COc1ccc(NC(=O)Cc2c(C)c3ccc(O)cc3oc2=O)cc1OC | inconclusive: 50.1 µM [inhibitor, partial curve, poor fit] | 
28 | COc1ccc(S(=O)(=O)Nc2ccc3ccccc3c2)cc1C |  | inactive: 4.81%
29 | Cc1nc(Nc2cccc(C(F)(F)F)c2)sc1C(=O)N(C)C |  | inconclusive: -34.4% [inhibitor]
30 | C/C(=N\Nc1nc2ccccc2s1)c1cccs1 | inconclusive: 44.7 µM [inhibitor, partial curve, poor fit] | 
31 | COc1ccc(/C(Cl)=C(/C=N/O)c2ccc(OC)cc2)cc1 |  | inactive: -18.4%
32 | COc1ccc(-c2cc(C(=O)N(C)CCO)c3ccccc3n2)cc1 |  | inactive: 1.53%
33 | Cc1ccc(C(=O)COC(=O)CCN2C(=O)C3C4C=CC(C5CC45)C3C2=O)cc1 (stereo not given) | inconclusive: 7.94 µM [inhibitor, full curve, poor fit] | 
34 | CCOC(=O)N1CCN(c2cc(=O)n(-c3ccc(Br)cc3)c(=O)[nH]2)CC1 |  | inactive: 18.3%
35 | Cc1cc([N+](=O)[O-])cc2ncccc12 | inconclusive: 100 µM [inhibitor, single point] | 
36 | COc1ccc(-c2ccc(C#N)c(SCC(=O)NCCc3ccc(OC)c(OC)c3)n2)cc1 | inconclusive: 126 µM [inhibitor, single point] | 
37 | Cc1ccc2nc(/C(C#N)=C\C3CC4C=CC3C4)[nH]c2c1 (stereo not given) | inconclusive: 39.8 µM [inhibitor, partial curve, poor fit] | 
38 | COc1ccccc1CNCc1ccc(OC)c(OC)c1OC | inconclusive: 3.55 µM [inhibitor, full curve, poor fit] | 
39 | C/C(=C\c1ccccc1)CN1CCN(c2ccccc2F)CC1 | inconclusive: 0.501 µM [inhibitor, full curve, poor fit] | 
40 | C/C(=N\NS(=O)(=O)c1ccc(C)cc1)c1cc2ccccc2oc1=O | inconclusive: 56.2 µM [inhibitor, partial curve, poor fit] | 
41 | CC(C)Oc1ccc(C(=O)OCC(=O)N2CCCc3ccccc32)cc1 |  | inactive: -5.53%
42 | COc1ccc(Nc2nnc(Cc3ccccc3)c(=O)[nH]2)c(OC)c1 |  | inactive: 38.4%
43 | Cc1ccc(S(=O)(=O)/N=C2/NC(=O)/C(=C/c3ccccc3)S2)cc1 | active: 12.6 µM | 
44 | COc1ccc(NC(=O)c2csnn2)cc1 | inconclusive: 141 µM [inhibitor, partial curve, poor fit] | 
45 | Cc1cccc(C(=O)N[C@H](C(=O)Nc2ccc3c(c2)OCO3)C(C)C)c1 |  | inactive: -2.54%
46 | O=C(COc1ccccc1-c1noc(COc2ccc(F)cc2)n1)NCc1ccccc1 | inconclusive: 25.1 µM [inhibitor, partial curve, poor fit] | 
47 | CCN1C(=O)C2CC3(CCN(C(=O)c4sc(C)nc4C)CC3)CN2C1=O (stereo not given) |  | inactive: 10.4%
48 | Cc1ccc(NC(=O)C(Sc2nnnn2C2CCCC2)c2ccccc2)cc1 (stereo not given) | inconclusive: 0.501 µM [inhibitor, full curve, poor fit] | 

Single entries from the results shown:
`C/C(=N/NC(=O)c1ccncc1)c1cc2ccc(O)cc2oc1=O` | activity change, negative = inhibition: inactive: -1.31%
`COc1ccc(/C(Cl)=C(/C=N/O)c2ccc(OC)cc2)cc1` | activity change, negative = inhibition: inactive: -18.4%
`Cc1cc([N+](=O)[O-])cc2ncccc12` | Potency: inconclusive: 100 µM [inhibitor, single point]
`Cc1ccc(S(=O)(=O)/N=C2/NC(=O)/C(=C/c3ccccc3)S2)cc1` | Potency: active: 12.6 µM
`C/C(=N\Nc1nc2ccccc2s1)c1cccs1` | Potency: inconclusive: 44.7 µM [inhibitor, partial curve, poor fit]

2 records picked at random from those above, as already listed:
Row | Structure (SMILES) | Potency | activity change, negative = inhibition
24 | CC[C@]1(C(=O)OC)[C@H]2C(=O)N(C)C(=O)[C@H]2[C@H]2CN(C)C(=NCc3ccccc3)N21 | inconclusive: 126 µM [inhibitor, single point] | 
37 | Cc1ccc2nc(/C(C#N)=C\C3CC4C=CC3C4)[nH]c2c1 (stereo not given) | inconclusive: 39.8 µM [inhibitor, partial curve, poor fit] | 

Later entries

Row | Structure (SMILES) | Potency | activity change, negative = inhibition
49 | CCOc1cc(N2CCOCC2)c(OCC)cc1NC(=O)CSc1ccccc1C(=O)O | inconclusive: 39.8 µM [inhibitor, partial curve, poor fit] | 
50 | CC(CN1CCN(C)CC1)OC(=O)c1ccc(Cl)cc1 (stereo not given) | inconclusive: 35.5 µM [inhibitor, single point] | 
51 | C/C(=N\Nc1ccc(Br)cc1)c1ccc2c(c1)Cc1ccccc1-2 | active: 10 µM | 
52 | O=C(CCn1ccc2ccccc21)NC1CCCCCCC1 | inconclusive: 100 µM [inhibitor, single point] | 
53 | CC(C)NC(=O)c1cnc2c(c1)N(C(=O)Cc1cn(C)c3ccccc13)CCC2 | inconclusive: 126 µM [inhibitor, partial curve, poor fit] | 
54 | Cc1cc(-c2ccccc2)nc(Nc2nc3c(C)cccc3c(=O)[nH]2)n1 |  | inactive: 9.54%
55 | Cc1ccccc1C(=O)NC(=S)NCC(=O)c1ccccc1 |  | inactive: -24.9%
56 | Cn1nnnc1SCc1cccc(CSc2nnnn2C)n1 | inconclusive: 5.01 µM [inhibitor, full curve, poor fit] | 
57 | O=C(c1ccccc1)c1ccc(N2CCOCC2)cc1 |  | inconclusive: -30.2% [inhibitor]
58 | O=C(COc1ccc(Cl)cc1Cl)Nc1ccc2c(c1)N(C(=O)c1cccnc1)CCC2 |  | inactive: -9.63%
59 | Cc1ccccc1CN1CCN(c2nc3c(c(=O)[nH]c(=O)n3C)n2Cc2ccc(F)cc2)CC1 | inconclusive: 89.1 µM [inhibitor, single point] | 
60 | Cc1cc(C)c2cc(C(=O)NCc3ccc4c(c3)OCO4)[nH]c2c1 | inconclusive: 7.08 µM [inhibitor, full curve] | 
61 | O=C(Oc1cccc([N+](=O)[O-])c1)C1CCN(C(=O)c2ccc(F)cc2)CC1 | inconclusive: 89.1 µM [inhibitor, partial curve, poor fit] | 
62 | CCn1cc(/C=N\NC(=O)Cc2ccc([N+](=O)[O-])cc2)c(C)n1 |  | inactive: 12.8%
63 | CC(C)c1ccc2c(c1)-c1ccccc1S(=O)(=O)N2CC(=O)NCc1ccco1 | inconclusive: 63.1 µM [inhibitor, partial curve, poor fit] | 
64 | COc1ccc(C(=O)NC(=S)Nc2ccccc2N2CCCCC2)cc1[N+](=O)[O-] | active: 39.8 µM | 
65 | Cn1cnc2c1c(=O)n(CC(=O)N1CC(C(=O)N3CCOCC3)Oc3ccccc31)c(=O)n2C (stereo not given) |  | inactive: 34.3%
66 | Cc1cc(=O)[nH]c(SCCc2ccccc2)n1 |  | inactive: -14.9%
67 | CC(C)NC(=O)N1CCN(c2cccc(C=O)c2)C(=O)C1 |  | inactive: 4.72% [at 12.5 µM]
68 | COc1ccc(CSCC(=O)NCCC(C)C)cc1 | inconclusive: 20 µM [inhibitor, partial curve, poor fit] | 
69 | O=C(NC(=S)Nc1ccccc1CO)C1CCCCC1 | inconclusive: 89.1 µM [inhibitor, partial curve, poor fit] | 
70 | Cc1ccc(C(=O)N2CCC3(CC2)NC(=O)N(c2ccccc2)N3)s1 | inconclusive: 10 µM [inhibitor, full curve, poor fit] | 
